Experimental data reported in patent US9458319B2, “Article with antifouling properties, intended for aquatic uses and, in particular, for marine uses” (BLUESTAR SILICONES FRANCE SAS, priority 2012, dated 2016).

test: Working time (pot life) of RTV-2 composition with the catalyst tested; settings: RTV-2, polyethyl silicate crosslinking agent; catalyst 2.66 mmol per 100 g of slurry

For `CCCCC(CC)C(=O)[O-].CCCCC(CC)C(=O)[O-].CCCCNCCCC.[Zn+2]` (stereo not drawn) [[Zn(2-ethylhexanoate)2 (DBA)], [Zn(2-ethylhexanoate)2(N,N-dibutylamine)]], which Working time is on record?
Its Working time is 80 min.

Which Working time does the source give for “zinc neodecanoate [[Zn(ND)2)], reference compound]” here?
The Working time was over 2900 min.

Which Working time does the source give for “[Zn(naphthenate)2(N,N-dibutylamine)2] [[Zn(NAPH)2(DBA) 2]]” here?
The Working time was 46 min.

Which Working time does the source give for `CCCCC(CC)C(=O)[O-].CCCCC(CC)C(=O)[O-].CCCCNCCCC.CCCCNCCCC.[Zn+2]` (stereo not drawn) [[Zn(2-ethylhexanoate)2 (DBA) 2], [Zn(2-ethylhexanoate)2(N,N-dibutylamine)2]] here?
The Working time was 40 min.

With “[Zn(naphthenate)2(n-octylamine)2] [[Zn(NAPH)2(OA) 2]]” as the compound, how does the Working time read?
The Working time was 30 min.

Which Working time does the source give for “zinc 2-ethylhexanoate [[Zn(2-ethylhexanoate)2], reference compound]” here?
Its Working time is 2880 min.

For “zinc naphthenate [[Zn(NAPH)2], reference compound]”, which Working time is on record?
The Working time was 2880 min.

same assay, conditions: RTV-2, polyethyl silicate crosslinking agent; catalyst 2.66 mmol per 100 g of slurry (UL28 0.886 mmol per 100 g)

Which “Working time (mn)” value does the source give for “[Zn(neodecanoate)2(n-octylamine)2] [[Zn(ND)2(OA)2]]” here?
The value was 32 mn.

For “[Zn(neodecanoate)2(N,N-dibutylamine)2] [[Zn(ND)2(DBA)2]]”, which “Working time (mn)” value is on record?
The value was 39 mn.

With “dimethyltin dineodecanoate [UL28, reference compound]” as the compound, how does the “Working time (mn)” value read?
Its value is 40 mn.

With “[Zn(neodecanoate)2(N,N-dibutylamine)] [[Zn(ND)2(DBA)]]” as the compound, how does the “Working time (mn)” value read?
The value was 120 mn.

For “[Zn(neodecanoate)2(n-octylamine)] [[Zn(ND)2(OA)]]”, which “Working time (mn)” value is on record?
The value was 157 mn.
